Results from paper doi:10.1101/2022.06.06.495010.
These are yes or no findings as the source states them, for the method shown. In cells and extracts the contact can be indirect. Some results given as binding are weak or reduced against the parent protein; the word gives no strength.

The chains behind the UniProt entries cited, without tags or fusion partners. Residues count along the entry.
UniProt P29317, residues 24-976: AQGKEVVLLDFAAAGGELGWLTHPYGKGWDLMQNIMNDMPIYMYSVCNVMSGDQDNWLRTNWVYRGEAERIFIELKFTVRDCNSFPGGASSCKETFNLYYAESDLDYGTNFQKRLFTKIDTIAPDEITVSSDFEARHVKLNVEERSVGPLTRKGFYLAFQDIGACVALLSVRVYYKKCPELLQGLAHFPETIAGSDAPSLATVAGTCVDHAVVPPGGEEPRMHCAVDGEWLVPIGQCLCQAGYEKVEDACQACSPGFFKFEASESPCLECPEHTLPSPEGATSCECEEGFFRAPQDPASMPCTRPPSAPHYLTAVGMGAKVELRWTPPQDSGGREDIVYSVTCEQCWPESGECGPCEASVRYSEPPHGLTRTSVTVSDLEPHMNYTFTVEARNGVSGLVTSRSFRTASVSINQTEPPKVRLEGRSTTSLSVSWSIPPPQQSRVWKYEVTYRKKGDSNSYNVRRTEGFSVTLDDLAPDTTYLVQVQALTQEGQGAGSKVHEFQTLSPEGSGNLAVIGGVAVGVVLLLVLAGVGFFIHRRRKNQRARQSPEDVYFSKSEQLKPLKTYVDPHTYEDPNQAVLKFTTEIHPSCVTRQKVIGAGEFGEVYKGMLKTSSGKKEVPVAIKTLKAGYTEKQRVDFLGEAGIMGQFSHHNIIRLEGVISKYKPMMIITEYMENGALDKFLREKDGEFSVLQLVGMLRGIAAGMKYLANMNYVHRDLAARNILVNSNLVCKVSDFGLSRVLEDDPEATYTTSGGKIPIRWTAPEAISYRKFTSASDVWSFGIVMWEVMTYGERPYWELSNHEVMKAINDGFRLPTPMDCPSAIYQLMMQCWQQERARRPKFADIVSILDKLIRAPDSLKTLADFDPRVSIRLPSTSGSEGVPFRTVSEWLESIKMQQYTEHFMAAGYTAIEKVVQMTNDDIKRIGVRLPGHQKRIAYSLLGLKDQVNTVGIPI

Target: EphA2 wild-type, full-length, labeled at the C-terminus with mTurquoise or eYFP (human) (UniProt P29317)
Assay: FRET or BRET

Substance: EphA2 wild-type, full-length, labeled at the C-terminus with mTurquoise or eYFP (from UniProt P29317 24-976) (receptor)
- binding: binds
